# Experimental data: paper PMC5133669
# Protein sequences, listed by entry. Tags and fused reporters are not part of them. Lines headed by an entry give the natural chain unless they say otherwise; changes in a name come on top. Residues count along the entry.
# UniProt P07204, residues 19-575: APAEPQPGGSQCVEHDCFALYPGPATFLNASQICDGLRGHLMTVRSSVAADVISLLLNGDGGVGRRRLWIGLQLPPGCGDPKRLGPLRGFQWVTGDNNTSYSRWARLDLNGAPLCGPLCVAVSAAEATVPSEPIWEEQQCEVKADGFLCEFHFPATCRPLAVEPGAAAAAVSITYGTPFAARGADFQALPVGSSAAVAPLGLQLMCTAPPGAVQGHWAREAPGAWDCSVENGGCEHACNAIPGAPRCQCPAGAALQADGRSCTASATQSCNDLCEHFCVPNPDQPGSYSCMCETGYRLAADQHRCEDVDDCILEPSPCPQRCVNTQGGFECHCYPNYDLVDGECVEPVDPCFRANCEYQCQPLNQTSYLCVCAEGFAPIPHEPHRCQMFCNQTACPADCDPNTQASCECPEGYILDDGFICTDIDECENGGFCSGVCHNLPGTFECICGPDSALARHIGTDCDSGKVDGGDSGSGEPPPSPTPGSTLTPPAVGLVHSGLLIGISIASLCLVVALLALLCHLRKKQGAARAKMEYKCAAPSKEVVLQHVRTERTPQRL
# UniProt Q05655: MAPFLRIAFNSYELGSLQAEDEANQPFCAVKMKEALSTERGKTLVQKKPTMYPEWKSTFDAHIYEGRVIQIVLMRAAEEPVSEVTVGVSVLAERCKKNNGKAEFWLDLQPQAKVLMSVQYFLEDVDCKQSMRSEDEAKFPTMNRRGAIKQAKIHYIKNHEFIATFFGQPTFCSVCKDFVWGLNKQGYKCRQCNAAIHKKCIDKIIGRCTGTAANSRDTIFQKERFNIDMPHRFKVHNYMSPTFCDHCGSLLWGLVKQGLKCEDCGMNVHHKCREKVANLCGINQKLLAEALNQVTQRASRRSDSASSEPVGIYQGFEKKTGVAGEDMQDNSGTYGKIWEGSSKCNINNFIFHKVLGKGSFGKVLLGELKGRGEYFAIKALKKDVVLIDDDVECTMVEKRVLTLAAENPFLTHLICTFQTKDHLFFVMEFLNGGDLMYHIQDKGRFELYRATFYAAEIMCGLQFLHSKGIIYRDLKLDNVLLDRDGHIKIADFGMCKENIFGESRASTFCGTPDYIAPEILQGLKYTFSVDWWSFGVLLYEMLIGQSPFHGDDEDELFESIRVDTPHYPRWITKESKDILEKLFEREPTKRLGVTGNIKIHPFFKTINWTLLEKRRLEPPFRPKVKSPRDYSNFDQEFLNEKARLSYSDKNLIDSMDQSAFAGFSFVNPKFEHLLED
# UniProt P49023: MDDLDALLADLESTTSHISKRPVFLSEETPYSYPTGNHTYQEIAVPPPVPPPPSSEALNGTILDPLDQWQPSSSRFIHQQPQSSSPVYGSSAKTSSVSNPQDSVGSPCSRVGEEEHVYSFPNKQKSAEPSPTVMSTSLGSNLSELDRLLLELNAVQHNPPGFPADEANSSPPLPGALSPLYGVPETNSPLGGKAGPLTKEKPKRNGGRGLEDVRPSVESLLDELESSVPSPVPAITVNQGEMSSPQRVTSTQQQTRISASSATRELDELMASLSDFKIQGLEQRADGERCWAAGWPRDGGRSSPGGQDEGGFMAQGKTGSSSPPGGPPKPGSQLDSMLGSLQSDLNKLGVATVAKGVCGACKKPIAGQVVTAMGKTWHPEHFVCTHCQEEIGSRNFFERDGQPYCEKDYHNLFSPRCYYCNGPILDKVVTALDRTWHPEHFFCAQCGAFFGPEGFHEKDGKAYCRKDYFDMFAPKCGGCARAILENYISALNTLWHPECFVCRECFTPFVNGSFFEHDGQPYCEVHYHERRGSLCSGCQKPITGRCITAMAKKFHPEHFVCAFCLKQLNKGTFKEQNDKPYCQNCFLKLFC
# UniProt P53667: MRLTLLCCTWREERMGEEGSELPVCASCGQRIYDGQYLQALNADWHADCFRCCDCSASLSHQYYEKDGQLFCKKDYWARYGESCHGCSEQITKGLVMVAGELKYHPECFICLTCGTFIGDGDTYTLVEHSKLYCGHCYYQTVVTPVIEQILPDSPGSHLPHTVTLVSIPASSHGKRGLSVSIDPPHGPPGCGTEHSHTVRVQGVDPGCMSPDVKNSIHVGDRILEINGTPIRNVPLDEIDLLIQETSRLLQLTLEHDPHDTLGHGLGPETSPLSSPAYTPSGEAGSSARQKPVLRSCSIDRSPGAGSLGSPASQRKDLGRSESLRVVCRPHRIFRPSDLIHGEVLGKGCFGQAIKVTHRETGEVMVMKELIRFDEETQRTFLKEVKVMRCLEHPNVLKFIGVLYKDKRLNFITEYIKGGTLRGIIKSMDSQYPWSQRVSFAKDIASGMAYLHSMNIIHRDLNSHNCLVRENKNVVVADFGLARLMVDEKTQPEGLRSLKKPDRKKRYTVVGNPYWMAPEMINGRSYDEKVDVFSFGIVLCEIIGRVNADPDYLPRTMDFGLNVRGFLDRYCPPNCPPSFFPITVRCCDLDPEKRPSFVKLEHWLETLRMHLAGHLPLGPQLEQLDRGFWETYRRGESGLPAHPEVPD
# UniProt Q14289: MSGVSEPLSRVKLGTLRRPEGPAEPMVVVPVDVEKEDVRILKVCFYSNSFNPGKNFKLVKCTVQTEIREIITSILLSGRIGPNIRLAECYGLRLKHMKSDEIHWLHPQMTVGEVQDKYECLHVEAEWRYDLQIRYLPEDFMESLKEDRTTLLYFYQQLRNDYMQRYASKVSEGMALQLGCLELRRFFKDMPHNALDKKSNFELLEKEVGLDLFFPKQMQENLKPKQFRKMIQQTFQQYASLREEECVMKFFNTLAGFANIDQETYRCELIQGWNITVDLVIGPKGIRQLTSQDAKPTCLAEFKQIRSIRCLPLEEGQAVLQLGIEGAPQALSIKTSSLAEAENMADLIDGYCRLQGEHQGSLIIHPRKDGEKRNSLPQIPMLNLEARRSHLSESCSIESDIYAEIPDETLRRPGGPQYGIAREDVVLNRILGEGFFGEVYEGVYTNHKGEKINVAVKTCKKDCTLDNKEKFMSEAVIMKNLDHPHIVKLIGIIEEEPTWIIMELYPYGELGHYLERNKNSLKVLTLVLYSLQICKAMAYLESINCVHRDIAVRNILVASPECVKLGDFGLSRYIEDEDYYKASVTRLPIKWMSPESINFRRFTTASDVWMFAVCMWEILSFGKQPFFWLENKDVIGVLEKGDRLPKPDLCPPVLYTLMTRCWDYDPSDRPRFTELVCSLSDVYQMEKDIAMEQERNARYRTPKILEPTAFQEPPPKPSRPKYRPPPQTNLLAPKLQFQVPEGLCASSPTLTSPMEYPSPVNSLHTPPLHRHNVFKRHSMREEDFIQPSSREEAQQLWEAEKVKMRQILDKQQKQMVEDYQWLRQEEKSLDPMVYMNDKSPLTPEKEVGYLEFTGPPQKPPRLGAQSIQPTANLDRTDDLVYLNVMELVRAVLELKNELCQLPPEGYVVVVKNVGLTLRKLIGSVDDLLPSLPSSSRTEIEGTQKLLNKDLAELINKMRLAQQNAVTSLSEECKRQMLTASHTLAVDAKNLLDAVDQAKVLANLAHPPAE
# No constants are given. Whether binding was seen depends on the method and setting. Binding seen in cells or lysates may run through a third protein. Some results given as binding are weak or reduced against the parent protein; the word gives no strength.
# Experiments:
# [1] = biological target: Thrombomodulin (human (endogenous in THP-1 and in PBMCs)) (UniProt P07204); experiment: co-IP; lysates of PMA-treated THP-1 cells (150 mM NaCl, 50 mM Tris-HCl pH 7.4, 1% NP-40); IP with rabbit anti-TM antibody (or goat anti-PKCδ antibody), IgG control, protein A/G beads, 4 °C; western blot
# [2] = biological target: protein kinase C-δ (human (endogenous in THP-1 and in PBMCs)) (UniProt Q05655); experiment: co-IP; lysates of human PBMCs stimulated with 150 nM PMA for 24 hours; IP with rabbit anti-TM or goat anti-PKCδ antibody, IgG controls; western blot
# [3] = biological target: protein kinase C-δ (human (endogenous in THP-1 and in PBMCs)) (UniProt Q05655); experiment: co-IP; lysates of PMA-treated THP-1 cells (150 mM NaCl, 50 mM Tris-HCl pH 7.4, 1% NP-40); IP with rabbit anti-TM antibody (or goat anti-PKCδ antibody), IgG control, protein A/G beads, 4 °C; western blot
# [4] = biological target: Thrombomodulin (human (endogenous in THP-1 and in PBMCs)) (UniProt P07204); experiment: co-IP; lysates of human PBMCs stimulated with 150 nM PMA for 24 hours; IP with rabbit anti-TM or goat anti-PKCδ antibody, IgG controls; western blot
Substance,binding [1],binding [2],binding [3],binding [4]
Thrombomodulin (from UniProt P07204 19-575),–,binds,binds,–
paxillin (from UniProt P49023 1-591),binds,–,–,–
protein kinase C-δ (from UniProt Q05655 1-676) (enzyme),binds,–,–,binds

# The next lines start with the values.
binding [1],binding [2],binding [3],binding [4],Substance
binds,–,–,–,LIM Kinase 1 (from UniProt P53667 1-647) (enzyme)
binds,–,–,–,PYK2 (from UniProt Q14289 1-1009) (enzyme)
